This passage reports binding signal (log2 enrichment (interaction score)) results from PMC8384837.

Residue numbers refer to the chain shown, from its start. Some of the results follow. For some assays here: At the low end of the ranking the order means little. For some assays here: Construct or isoform of the protein are uncertain.

Holding throughout (settings): yeast three-hybrid, YBZ-1, SC-Leu-His + 0.5 mM 3-AT, 4 days
Test [1] has as its target T1, PUM1 PUF domain R1-QFR R2-VFQ R7-NPG S863Q + R864F + Q867R + N899V + Y900F + S1079N + N1080P + E1083G (UniProt Q14671).
T1 sequence: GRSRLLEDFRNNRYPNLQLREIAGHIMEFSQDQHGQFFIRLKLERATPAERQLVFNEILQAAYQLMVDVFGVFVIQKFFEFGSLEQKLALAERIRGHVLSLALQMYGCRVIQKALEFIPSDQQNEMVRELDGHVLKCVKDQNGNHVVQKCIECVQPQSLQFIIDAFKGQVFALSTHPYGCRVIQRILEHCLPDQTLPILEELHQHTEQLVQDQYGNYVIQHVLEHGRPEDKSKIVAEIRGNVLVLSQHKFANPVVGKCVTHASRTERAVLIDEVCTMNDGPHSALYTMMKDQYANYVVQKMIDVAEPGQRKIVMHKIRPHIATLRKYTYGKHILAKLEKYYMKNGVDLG

Test [2] concerns the target T2, PUM1 PUF domain R3-THE R4-TFR C935T + R936H + Q939E + N971T + H972F + Q975R (UniProt Q14671).
T2 sequence: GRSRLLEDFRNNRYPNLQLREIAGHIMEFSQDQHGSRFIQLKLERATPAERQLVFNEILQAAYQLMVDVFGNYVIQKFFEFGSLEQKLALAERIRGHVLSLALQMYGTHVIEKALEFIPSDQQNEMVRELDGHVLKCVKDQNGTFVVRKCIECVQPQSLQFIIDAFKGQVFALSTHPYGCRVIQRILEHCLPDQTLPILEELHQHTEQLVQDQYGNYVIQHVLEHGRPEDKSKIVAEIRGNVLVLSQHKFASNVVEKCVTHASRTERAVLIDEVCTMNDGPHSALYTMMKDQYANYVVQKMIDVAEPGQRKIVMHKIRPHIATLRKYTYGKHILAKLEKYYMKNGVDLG

Test [3] addresses T3, PUM1 PUF domain R5-PHQ R6-SWD C1007P + R1008H + N1043S + Y1044W + Q1047D (UniProt Q14671).
T3 sequence: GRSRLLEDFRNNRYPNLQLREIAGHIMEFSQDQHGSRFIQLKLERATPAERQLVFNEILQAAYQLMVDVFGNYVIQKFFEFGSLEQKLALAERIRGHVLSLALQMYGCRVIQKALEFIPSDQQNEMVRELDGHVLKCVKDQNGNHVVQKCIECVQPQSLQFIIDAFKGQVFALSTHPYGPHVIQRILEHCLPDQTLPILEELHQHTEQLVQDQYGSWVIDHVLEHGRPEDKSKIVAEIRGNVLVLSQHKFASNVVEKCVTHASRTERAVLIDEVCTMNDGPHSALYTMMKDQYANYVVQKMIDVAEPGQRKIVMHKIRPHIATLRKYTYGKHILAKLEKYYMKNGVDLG

In test [4] the target is T4, PUM1 PUF domain R3-THE R4-TFR R7-NPG C935T + R936H + Q939E + N971T + H972F + Q975R + S1079N + N1080P + E1083G (Homo sapiens) (UniProt Q14671).
T4 sequence: T2 sequence with S252N, N253P, E256G

For “GGCUAGAACUAGUGGAUCCCCCGGCGCCCGGCGGCUCGAGCCCGGGUAAGUACAAGUAGUCUGCAUGCCGCCGGGCGCCAUGCCUGCAGGUCGACUCUAGAAAACAUG”, the results for the binding signal (log2 enrichment (interaction score)) in test [1] and in test [2] were -7.58 and -7.78, respectively.

Turning to “GGCUAGAACUAGUGGAUCCCCCGGCGCCCGGCGGCUCGAGCCCGGGUAAGUUGACUCAGUCUGCAUGCCGCCGGGCGCCAUGCCUGCAGGUCGACUCUAGAAAACAUG”, the binding signal (log2 enrichment (interaction score)) in test [1] was -3.79; in test [2], -7.96; in test [3], -7.45.

Regarding “GGCUAGAACUAGUGGAUCCCCCGGCGCCCGGCGGCUCGAGCCCGGGUAAGAUUCUGUGGUCUGCAUGCCGCCGGGCGCCAUGCCUGCAGGUCGACUCUAGAAAACAUG”, the results for the binding signal (log2 enrichment (interaction score)) in test [1], in test [2] and in test [4] were -4.84, -6.46 and -1.29, respectively.
